This note sets out measurements from paper PMC5238962.

Amino acid sequences for entries named in this document (tags omitted).
UniProt P47813: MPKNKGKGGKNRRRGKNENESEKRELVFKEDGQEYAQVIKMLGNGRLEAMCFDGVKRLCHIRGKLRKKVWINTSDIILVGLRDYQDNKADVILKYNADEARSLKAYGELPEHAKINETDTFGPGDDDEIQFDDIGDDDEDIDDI
UniProt P20042: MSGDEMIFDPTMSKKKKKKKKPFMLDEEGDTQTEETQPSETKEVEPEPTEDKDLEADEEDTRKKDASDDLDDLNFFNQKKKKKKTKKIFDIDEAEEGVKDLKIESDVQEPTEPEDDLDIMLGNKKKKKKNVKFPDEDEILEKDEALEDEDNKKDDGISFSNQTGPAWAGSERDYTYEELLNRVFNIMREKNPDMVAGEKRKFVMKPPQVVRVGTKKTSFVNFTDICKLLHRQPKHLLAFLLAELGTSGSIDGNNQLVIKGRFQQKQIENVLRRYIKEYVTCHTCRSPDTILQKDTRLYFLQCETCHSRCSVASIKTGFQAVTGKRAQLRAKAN
UniProt P05198: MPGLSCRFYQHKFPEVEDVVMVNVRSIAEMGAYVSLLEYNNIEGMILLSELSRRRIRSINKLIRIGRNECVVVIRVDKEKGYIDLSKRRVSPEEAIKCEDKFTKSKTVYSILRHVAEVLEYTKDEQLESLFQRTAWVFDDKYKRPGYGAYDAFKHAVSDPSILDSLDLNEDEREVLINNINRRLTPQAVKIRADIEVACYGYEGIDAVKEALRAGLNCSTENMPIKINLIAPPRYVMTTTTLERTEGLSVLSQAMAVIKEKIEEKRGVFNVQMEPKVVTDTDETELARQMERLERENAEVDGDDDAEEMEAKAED
UniProt O15371: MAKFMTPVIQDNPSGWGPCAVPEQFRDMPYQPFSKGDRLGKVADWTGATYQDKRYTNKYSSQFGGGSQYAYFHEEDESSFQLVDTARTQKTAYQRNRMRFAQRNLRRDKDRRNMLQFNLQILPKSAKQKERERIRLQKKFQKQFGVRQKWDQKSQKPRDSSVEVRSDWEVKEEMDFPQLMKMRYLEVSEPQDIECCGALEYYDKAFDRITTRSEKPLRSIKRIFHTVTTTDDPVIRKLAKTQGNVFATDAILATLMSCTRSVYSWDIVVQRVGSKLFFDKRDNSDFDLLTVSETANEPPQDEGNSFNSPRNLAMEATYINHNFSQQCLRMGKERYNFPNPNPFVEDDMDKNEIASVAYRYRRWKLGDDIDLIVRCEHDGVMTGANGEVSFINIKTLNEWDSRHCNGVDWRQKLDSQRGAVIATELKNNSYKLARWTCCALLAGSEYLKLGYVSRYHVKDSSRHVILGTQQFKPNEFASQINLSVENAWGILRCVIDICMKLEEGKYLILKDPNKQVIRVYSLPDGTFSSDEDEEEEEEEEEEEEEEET
UniProt Q99613: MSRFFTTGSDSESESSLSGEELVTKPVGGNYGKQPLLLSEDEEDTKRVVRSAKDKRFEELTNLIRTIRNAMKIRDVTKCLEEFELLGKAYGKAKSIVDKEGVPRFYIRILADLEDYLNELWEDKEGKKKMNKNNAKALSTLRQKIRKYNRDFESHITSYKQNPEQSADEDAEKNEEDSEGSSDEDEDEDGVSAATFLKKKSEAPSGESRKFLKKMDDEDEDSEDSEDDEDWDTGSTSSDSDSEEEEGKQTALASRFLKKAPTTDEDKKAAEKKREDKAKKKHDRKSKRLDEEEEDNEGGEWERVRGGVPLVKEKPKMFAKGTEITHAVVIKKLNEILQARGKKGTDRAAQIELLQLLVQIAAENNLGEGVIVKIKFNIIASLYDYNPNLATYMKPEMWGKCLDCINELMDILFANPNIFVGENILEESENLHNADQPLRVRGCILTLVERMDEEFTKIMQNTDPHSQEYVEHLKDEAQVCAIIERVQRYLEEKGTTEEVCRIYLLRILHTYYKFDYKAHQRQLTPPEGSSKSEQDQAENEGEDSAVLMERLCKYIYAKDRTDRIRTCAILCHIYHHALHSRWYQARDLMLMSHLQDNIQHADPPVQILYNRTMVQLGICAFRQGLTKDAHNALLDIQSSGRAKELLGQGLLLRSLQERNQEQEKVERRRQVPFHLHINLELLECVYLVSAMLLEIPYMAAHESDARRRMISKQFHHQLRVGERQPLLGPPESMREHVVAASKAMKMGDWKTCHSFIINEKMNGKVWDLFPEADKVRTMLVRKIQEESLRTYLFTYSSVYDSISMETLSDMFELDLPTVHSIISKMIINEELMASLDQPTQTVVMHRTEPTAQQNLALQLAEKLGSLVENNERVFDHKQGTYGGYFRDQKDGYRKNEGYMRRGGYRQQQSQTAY

In assay [1] the target is 6XHis-eIF1A (Homo sapiens translation initiation factor 1A X-linked) (human) (UniProt P47813). The experiment in a line: pull-down; only the target purified.
Assay [2] has the same target. As to the kind of experiment: pull-down; 6XHis-eIF1A on Ni-NTA agarose, HeLa cell extract; coprecipitated proteins detected by Western blot; also with 0.3, 1, 3 or 10 μM N40 random RNA or α-eIF1A aptamer RNA added; only the target purified. For orientation: In western blotting, separated proteins are transferred to a membrane and probed.

No constants are given. Whether binding was seen depends on the method and setting. In cells and extracts the contact can be indirect. Some binding calls cover weakened binding; strength is not graded here.

As for eIF2β (from UniProt P20042 1-333), the binding entry in assay [1] is “binds”. Regarding eIF2α (from UniProt P05198 1-315), the binding entry in assay [2] is “binds”. As to eIF3 p66 (from UniProt O15371 1-548), the binding entry in assay [1] is listed as “binds”.

For eIF3 p110 (from UniProt Q99613 1-913), the binding result in assay [2] is given as “binds”.
